These are yes or no findings as the source states them, for the method shown. Binding seen in cells or lysates may run through a third protein. Some results given as binding are weak or reduced against the parent protein; the word gives no strength.
Target: Full-length mouse Msx2 with a C-terminal V5-His tag (mouse) (UniProt Q03358)
Test: co-IP; HaCaT cells and Msx2-overexpressing (OE) cells lysed in IP lysis buffer at 4 °C; supernatant incubated overnight at 4 °C with anti-MSX2, anti-SMAD2 or isotype control IgG; Protein A/G PLUS-Agarose beads 8 h at 4 °C; immunoblot with anti-MSX2 and anti-SMAD2

The chains behind the UniProt entries cited, without tags or fusion partners.
UniProt Q03358: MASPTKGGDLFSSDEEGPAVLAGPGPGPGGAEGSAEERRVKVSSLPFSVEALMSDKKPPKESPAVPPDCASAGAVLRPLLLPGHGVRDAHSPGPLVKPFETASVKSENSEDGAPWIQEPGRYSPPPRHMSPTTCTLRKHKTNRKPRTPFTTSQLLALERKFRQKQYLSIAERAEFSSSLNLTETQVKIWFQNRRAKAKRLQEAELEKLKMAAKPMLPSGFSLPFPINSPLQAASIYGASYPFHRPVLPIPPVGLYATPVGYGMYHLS
UniProt Q15796: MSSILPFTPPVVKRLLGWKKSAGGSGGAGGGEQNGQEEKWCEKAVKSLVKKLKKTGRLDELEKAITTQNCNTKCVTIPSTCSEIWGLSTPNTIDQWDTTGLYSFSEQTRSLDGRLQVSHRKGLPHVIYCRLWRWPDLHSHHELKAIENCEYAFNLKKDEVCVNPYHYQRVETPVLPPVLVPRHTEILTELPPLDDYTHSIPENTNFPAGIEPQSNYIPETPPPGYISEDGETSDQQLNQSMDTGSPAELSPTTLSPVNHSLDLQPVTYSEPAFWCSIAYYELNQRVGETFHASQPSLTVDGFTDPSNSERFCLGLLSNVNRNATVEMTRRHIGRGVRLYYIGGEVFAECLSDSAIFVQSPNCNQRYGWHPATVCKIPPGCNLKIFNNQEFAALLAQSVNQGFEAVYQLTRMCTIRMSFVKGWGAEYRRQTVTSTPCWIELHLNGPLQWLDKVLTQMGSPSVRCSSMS

binding: binds
Substance: SMAD2 (from UniProt Q15796 1-467)

— publication PMC13227282
